{
  "source": "PubChem BioAssay AID2685",
  "about": "(National Center for Advancing Translational Sciences (NCATS), 2010)",
  "note": "The whole screen tested about 320,000 compounds, of which about 2,100 (0.66%) were called active. The shares of active, inactive and inconclusive entries below differ from those in the screen. The call rests on the fitted dose curve; in most records, active means well fitted inhibition curve with a large enough effect in the signal ratio, with a control signal flat (not every such curve was filed as active); inconclusive means small, poorly fitted or top-dose-only effect, or effect the other way, or a change in a side signal; inactive means flat fitted curve, though single readings scatter; the % refers to the signal ratio. Potencies beside an inconclusive call are fits to weak or partial responses and may not hold up. On the % scale 0 is the no-effect control and ±100 the full control effect; potency means the concentration at half of the fitted maximal effect.",
  "data": [
    {"experiment": "qHTS Assay for Lipid Storage Modulators in Drosophila S3 Cells", "conditions": "BODIPY lipid droplet fluorescence, 18-24 h, cells fed with added oleic acid; lipid storage change, negative = inhibition: at 46.1 µM (top of the series) unless noted", "in_short": "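Drosophila S3 cells got compounds at several concentrations plus oleic acid (400 uM solution). Laser-scanning cytometry with 488 nm excitation read lipid droplets at 500-530 nm and cells at 575-640 nm. Percent activity was relative to 20 uM Triacsin C.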", "values": [
      {"smiles": "CS(=O)(=O)N(CC(=O)NCC1CCCO1)c1ccc(F)c(Cl)c1", "note": "(stereo not given)", "Potency": "active: 14.6 µM"},
      {"smiles": "O=C(CNC(=O)c1ccccc1F)NCCN1C(=O)S/C(=C\\c2ccccc2Cl)C1=O", "lipid storage change, negative = inhibition": "inconclusive: 0.4%"},
      {"smiles": "CCOc1nc2cnccc2n(CC(=O)Nc2cccc(C)c2C)c1=O", "Potency": "inconclusive: 0.58 µM [activator, single point]"},
      {"smiles": "CC(C)Oc1ccc(CC2CCC(=O)N(C)C2=O)cc1", "note": "(stereo not given)", "lipid storage change, negative = inhibition": "inconclusive: 17.9%"},
      {"smiles": "CSc1ccc(N=Nc2c(C)[nH]n(C)c2=O)cc1", "Potency": "inconclusive: 29.1 µM [cytotoxic, single point]"},
      {"smiles": "COC(=O)c1cc(C(=O)OCC(=O)NC(=O)c2ccccc2)cc([N+](=O)[O-])c1", "lipid storage change, negative = inhibition": "inconclusive"},
      {"smiles": "COc1ccc(CN2CCN(S(=O)(=O)c3ccccc3)CC2)cc1Br", "Potency": "inconclusive: 29.1 µM [rising, single point]"},
      {"smiles": "COc1ccc(-n2c(O)c(/C=N/NS(=O)(=O)c3ccc(C)c([N+](=O)[O-])c3)c3ccccc3c2=O)cc1OC", "lipid storage change, negative = inhibition": "inconclusive: -31.3%"},
      {"smiles": "COC(=O)CSC1=C(C#N)C(c2ccc(F)cc2)CC(=O)N1", "note": "(stereo not given)", "Potency": "inconclusive: 0.13 µM [activator, full curve, poor fit]"},
      {"smiles": "Cn1cc(CNC(=O)C2CCC(=O)N(Cc3ccccc3F)C2)cn1", "note": "(stereo not given)", "lipid storage change, negative = inhibition": "inconclusive: -23.4%"},
      {"smiles": "O=C(CNC(=O)c1ccccc1F)NCCCN1CCCC1=O", "lipid storage change, negative = inhibition": "inconclusive: 0.289%"},
      {"smiles": "N=c1n(CCN2CCCCC2)c2ccccc2n1CC(=O)c1ccc(Cl)c(Cl)c1", "Potency": "inconclusive: 20.6 µM [cytotoxic, single point]"},
      {"smiles": "COc1ccc2nc(-c3cccc(N)c3)[nH]c2c1", "lipid storage change, negative = inhibition": "inconclusive: 3.44%"},
      {"smiles": "Cc1ccc(/C=C/C(=O)Nc2cc(S(N)(=O)=O)ccc2O)cc1", "lipid storage change, negative = inhibition": "inconclusive: 58.9%"},
      {"smiles": "Cc1ccc(C(=O)NCC(=O)NCC(=O)OCc2ccc(F)cc2)cc1", "lipid storage change, negative = inhibition": "inconclusive: -13.8%"},
      {"smiles": "COC(=O)c1c(NC(=O)COC(=O)c2ccc(NC(=O)CC#N)cc2)sc2c1CCCCC2", "Potency": "inconclusive: 5.17 µM [falling, partial curve, poor fit]"},
      {"smiles": "Cc1ccc(S(=O)(=O)Nc2c(O)c3ccccc3oc2=O)cc1", "lipid storage change, negative = inhibition": "inconclusive: 30.6%"},
      {"smiles": "CCOC(=O)c1c(C)[nH]c(C(=O)CN(C)CC(=O)Nc2ccccc2C(F)(F)F)c1C", "lipid storage change, negative = inhibition": "inconclusive: 8.71%"},
      {"smiles": "CC(C)(C)C(=O)COC(=O)c1c2c(nc3ccccc13)CCC2", "lipid storage change, negative = inhibition": "inconclusive: -4.34%"},
      {"smiles": "CCCn1c(SCC(=O)Nc2cc(S(=O)(=O)N3CCOCC3)ccc2Cl)n[nH]c1=O", "lipid storage change, negative = inhibition": "inconclusive: 17.3%"},
      {"smiles": "O=C(Nc1c(Cl)ccc2nsnc12)c1ccc([N+](=O)[O-])o1", "lipid storage change, negative = inhibition": "inactive"},
      {"smiles": "COc1cc(CNCCc2ccccc2F)ccc1OCC(=O)N1CCCCC1", "lipid storage change, negative = inhibition": "inconclusive: 0.312%"},
      {"smiles": "Cc1ccc(C)c(NS(=O)(=O)c2cc(C(=O)NCc3ccncc3)ccc2C)c1", "lipid storage change, negative = inhibition": "inconclusive: -7.1%"},
      {"smiles": "O=C(Cc1ccccc1)Nc1nnc(-c2ccco2)o1", "lipid storage change, negative = inhibition": "inconclusive: 9.57%"},
      {"smiles": "COc1cc(OC)cc(C(=O)NCCCn2ccnc2)c1", "Potency": "inconclusive: 0.13 µM [activator, full curve, poor fit]"},
      {"smiles": "CC(=O)Nc1ccc(S(=O)(=O)c2ccc(C)cc2)cc1", "lipid storage change, negative = inhibition": "inactive"},
      {"smiles": "COc1ccc(S(=O)(=O)N2CCC(C(=O)NCC(c3cccs3)N(C)C)CC2)cc1", "note": "(stereo not given)", "lipid storage change, negative = inhibition": "inconclusive: 42.8%"},
      {"smiles": "O=C(CSc1nc(=O)n2ccccc2n1)N1CCC(Cc2ccccc2)CC1", "Potency": "inconclusive: 2.91 µM [activator, partial curve]"},
      {"smiles": "CC(C)C(OC(=O)CCCC(=O)Nc1nccs1)C(=O)NC1CCCCC1", "note": "(stereo not given)", "Potency": "inconclusive: 32.6 µM [falling, single point]"},
      {"smiles": "CC(C)CN(C(=O)CCCOc1ccc(Cl)cc1Cl)c1c(N)n(Cc2ccccc2)c(=O)[nH]c1=O", "lipid storage change, negative = inhibition": "inconclusive: 39.1%"},
      {"smiles": "O=C(Cc1ccccc1F)Nc1ccccc1N1CCCC1", "Potency": "inconclusive: 18.4 µM [activator, single point]"},
      {"smiles": "CCC(=O)Nc1cc(C(=O)OCC(=O)c2ccccc2Cl)ccc1C", "lipid storage change, negative = inhibition": "inconclusive: 24.6%"},
      {"smiles": "Cc1cc(C)cc(C(=O)NCC(=O)NCCc2c[nH]c3ccccc23)c1", "Potency": "inconclusive: 29.1 µM [falling, partial curve, poor fit]"},
      {"smiles": "CN(c1ccccc1)S(=O)(=O)c1cc(C(=O)OCC(N)=O)ccc1Cl", "lipid storage change, negative = inhibition": "inconclusive: 14.6%"},
      {"smiles": "CN(C)c1ccc(/C=C(\\NC(=O)c2ccccc2)C(=O)NCCN2CCOCC2)cc1", "Potency": "inconclusive: 0.206 µM [falling, single point]"},
      {"smiles": "COc1ccccc1NC(=O)Nc1ccc(C)cn1", "Potency": "inconclusive: 0.731 µM [activator, full curve, poor fit]"},
      {"smiles": "CNC(=S)N1CCc2sccc2C1C", "note": "(stereo not given)", "lipid storage change, negative = inhibition": "inconclusive: -18.8%"},
      {"smiles": "Cc1cc(C)c(C(=O)OCc2csc(CC(=O)Nc3ccccc3C)n2)c(C)c1", "lipid storage change, negative = inhibition": "inconclusive: -25.1%"},
      {"smiles": "CCOC(=O)C(C)Sc1nnc(Cc2cc(=O)[nH]c(=O)[nH]2)n1-c1ccc(OCC)cc1", "note": "(stereo not given)", "lipid storage change, negative = inhibition": "inconclusive: 54.5%"},
      {"smiles": "CCOc1ccccc1N1CCN(C(=O)CNC(=O)c2sc3ccccc3c2Cl)CC1", "Potency": "inconclusive: 29.1 µM [activator, single point]"},
      {"smiles": "Cc1cc(C)n(-c2nnc(C)n2/N=C/c2ccc(O)cc2)n1", "lipid storage change, negative = inhibition": "inactive"},
      {"smiles": "Cc1ccc(S(=O)(=O)c2nnn3c2nc(N2CCN(c4ccccn4)CC2)c2ccccc23)cc1C", "lipid storage change, negative = inhibition": "inconclusive: 1.97%"},
      {"smiles": "O=C(NCCCn1ccnc1)Nc1ccc(Cl)c(Cl)c1", "lipid storage change, negative = inhibition": "inconclusive: -30.2%"},
      {"smiles": "OC(Cn1cncn1)c1ccc(Cl)cc1Cl", "note": "(stereo not given)", "lipid storage change, negative = inhibition": "inconclusive: 10.4%"},
      {"smiles": "Cn1ncc2c(NCc3ccccc3)ncnc21", "lipid storage change, negative = inhibition": "inconclusive: 7.04%"},
      {"smiles": "CCCC(=O)Nc1c2c(nn1-c1ccc(OC)cc1)CS(=O)(=O)C2", "lipid storage change, negative = inhibition": "inconclusive: 114%"},
      {"smiles": "COc1ccc(-n2nc3c(c2NC(=O)c2cc(Br)ccc2Cl)CS(=O)C3)cc1", "note": "(stereo not given)", "Potency": "inconclusive: 2.31 µM [activator, single point]"},
      {"smiles": "COc1ccc(CCNC(=O)c2csc3c2CCCC3)cc1", "lipid storage change, negative = inhibition": "inconclusive: -87.7%"},
      {"smiles": "Cc1ccc(NC(=O)c2ccncc2)cc1[N+](=O)[O-]", "lipid storage change, negative = inhibition": "inconclusive: 6.33%"},
      {"smiles": "COc1ccc(N(C(=O)c2cccnc2)S(=O)(=O)c2ccc3c4c(cccc24)C(=O)N3C)cc1", "lipid storage change, negative = inhibition": "inconclusive: 13.2%"},
      {"smiles": "NCCCC[C@H]1CN=C(N)N1CCC12CC3CC(CC(C3)C1)C2", "lipid storage change, negative = inhibition": "inconclusive: -7.52%"},
      {"smiles": "O=c1ccc(NS(=O)(=O)c2ccc(Cl)cc2)cn1Cc1ccc(Cl)c(Cl)c1", "Potency": "inconclusive: 7.31 µM [falling, partial curve, poor fit]"},
      {"smiles": "CC1CCN(C(=O)C(Cc2ccccc2)n2cccc2)CC1", "note": "(stereo not given)", "lipid storage change, negative = inhibition": "inconclusive: 18.4%"},
      {"smiles": "Cc1ccc(/C=N/NC(=O)c2cccs2)o1", "Potency": "inconclusive: 23.1 µM [rising, single point]"},
      {"smiles": "O=C(Nc1ccc(-c2n[nH]c(=S)o2)cc1)c1ccccc1Cl", "Potency": "inconclusive: 14.6 µM [falling, single point]"},
      {"smiles": "Cc1nn(-c2ccccc2)nc1C(=O)Nc1ccc2c(c1)OCCO2", "lipid storage change, negative = inhibition": "inconclusive: -29.8%"},
      {"smiles": "Cc1ccnc2nc(C(=O)Nc3nc4ccccc4s3)nn12", "lipid storage change, negative = inhibition": "inconclusive: -25.1%"},
      {"smiles": "Cc1ccc(C)c(OCC(O)CN2CCC(CN3C(=O)c4cccc5cccc(c45)C3=O)CC2)c1", "note": "(stereo not given)", "Potency": "inconclusive: 7.31 µM [falling, partial curve, poor fit]"},
      {"smiles": "O=C(Nc1cccc(OCC(=O)N2CCOCC2)c1)c1cccc(Cl)c1", "Potency": "inconclusive: 10.3 µM [activator, single point]"},
      {"smiles": "COc1ccc(OC)c(/C=N/c2oc(-c3ccco3)c(-c3ccco3)c2C#N)c1", "lipid storage change, negative = inhibition": "inconclusive: 0.694%"},
      {"smiles": "COc1ccc(C(=O)NCC(O)COc2ccc(C(C)(C)C)cc2)cc1[N+](=O)[O-]", "note": "(stereo not given)", "Potency": "inconclusive: 2.31 µM [falling, partial curve, poor fit]"},
      {"smiles": "COC(=O)c1sccc1NC(=O)c1ccc(OC)cc1OC", "lipid storage change, negative = inhibition": "inconclusive: 22.6%"},
      {"smiles": "Nc1nnc(SCCOc2ccc(Br)cc2)s1", "Potency": "inconclusive: 2.06 µM [activator, partial curve]"},
      {"smiles": "O=C(O)c1ccc(NC(=S)Nc2ccccc2)cc1", "Potency": "inconclusive: 6.51 µM [activator, single point]"},
      {"smiles": "C/C(CC(=O)Nc1ccccn1)=N\\NC(=O)c1ccc2ccccc2c1", "Potency": "inconclusive: 0.92 µM [activator, full curve]"},
      {"smiles": "COc1ccc(-n2c(C)cc3cc(OC(C)=O)ccc32)cc1", "Potency": "inconclusive: 29.1 µM [activator, single point]"},
      {"smiles": "CC(C)N(Cc1nc(-c2ccccc2)no1)C(=O)CCCN1C(=O)c2ccccc2C1=O", "Potency": "inconclusive: 1.84 µM [activator, partial curve]"},
      {"smiles": "NS(=O)(=O)c1ccc(CCNC(=O)CNC(=O)C2CCCCC2)cc1", "lipid storage change, negative = inhibition": "inconclusive: 5.52%"},
      {"smiles": "O=C(N/C=C\\c1ccccc1)NCc1ccc(Cl)cc1", "lipid storage change, negative = inhibition": "inconclusive: 13.6%"},
      {"smiles": "COC(=O)c1cc2nc(-c3ccc(C)cc3)cc(C(F)(F)F)n2n1", "Potency": "inconclusive: 3.26 µM [falling, single point]"},
      {"smiles": "C[C@@]12C(=O)N(c3ccc(F)cc3)C(=O)N1[C@@H]1c3ccccc3OC[C@@H]1[C@H]2c1ccccc1", "lipid storage change, negative = inhibition": "inconclusive: 55.7%"},
      {"smiles": "Cc1ccc(N(C(=O)c2snc(C(N)=O)c2N)C(C(=O)NC2CCCC2)c2ccco2)cc1", "note": "(stereo not given)", "Potency": "inconclusive: 0.146 µM [activator, full curve]"},
      {"smiles": "CC(C)(C)[C@@H]1C=C(C(N)=O)O[C@H](OCc2ccc(CO)cc2)C1", "lipid storage change, negative = inhibition": "inconclusive: -15%"},
      {"smiles": "NC(=O)C1CCN(C(=O)C2CCN(C(=O)Nc3ccccc3)CC2)CC1", "lipid storage change, negative = inhibition": "inconclusive"},
      {"smiles": "COc1cccc(/C=C(/C(=O)OCC(=O)NC2CCCC(C)C2C)c2ccccc2)c1", "note": "(stereo not given)", "Potency": "inconclusive: 0.517 µM [activator, single point]"}
    ]}
  ]
}
